Experimental data reported in the supplement of paper PMC6411743.
± gives the standard deviation of the averaged measurements. The list shows a part of the results.

By UniProt entry, the sequences of proteins in these tests, tags left out. Where a name states a change or a piece, a line headed by the entry shows the natural chain unless it says otherwise.
UniProt Q9UNL2: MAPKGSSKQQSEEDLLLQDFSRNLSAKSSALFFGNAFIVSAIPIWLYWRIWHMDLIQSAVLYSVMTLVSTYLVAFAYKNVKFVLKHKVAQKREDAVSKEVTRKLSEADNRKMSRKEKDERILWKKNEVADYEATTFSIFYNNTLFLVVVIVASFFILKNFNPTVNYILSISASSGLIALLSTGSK
UniProt Q9Y2S7: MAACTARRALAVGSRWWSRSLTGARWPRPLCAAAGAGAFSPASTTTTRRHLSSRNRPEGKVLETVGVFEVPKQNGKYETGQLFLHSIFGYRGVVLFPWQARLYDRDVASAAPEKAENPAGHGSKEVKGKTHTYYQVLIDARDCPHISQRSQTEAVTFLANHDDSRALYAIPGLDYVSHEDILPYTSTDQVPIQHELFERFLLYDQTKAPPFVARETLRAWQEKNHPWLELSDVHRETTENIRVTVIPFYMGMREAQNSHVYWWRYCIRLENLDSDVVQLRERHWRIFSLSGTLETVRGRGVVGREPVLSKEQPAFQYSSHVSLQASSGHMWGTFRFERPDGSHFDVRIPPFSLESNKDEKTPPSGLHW
UniProt Q9C0K0: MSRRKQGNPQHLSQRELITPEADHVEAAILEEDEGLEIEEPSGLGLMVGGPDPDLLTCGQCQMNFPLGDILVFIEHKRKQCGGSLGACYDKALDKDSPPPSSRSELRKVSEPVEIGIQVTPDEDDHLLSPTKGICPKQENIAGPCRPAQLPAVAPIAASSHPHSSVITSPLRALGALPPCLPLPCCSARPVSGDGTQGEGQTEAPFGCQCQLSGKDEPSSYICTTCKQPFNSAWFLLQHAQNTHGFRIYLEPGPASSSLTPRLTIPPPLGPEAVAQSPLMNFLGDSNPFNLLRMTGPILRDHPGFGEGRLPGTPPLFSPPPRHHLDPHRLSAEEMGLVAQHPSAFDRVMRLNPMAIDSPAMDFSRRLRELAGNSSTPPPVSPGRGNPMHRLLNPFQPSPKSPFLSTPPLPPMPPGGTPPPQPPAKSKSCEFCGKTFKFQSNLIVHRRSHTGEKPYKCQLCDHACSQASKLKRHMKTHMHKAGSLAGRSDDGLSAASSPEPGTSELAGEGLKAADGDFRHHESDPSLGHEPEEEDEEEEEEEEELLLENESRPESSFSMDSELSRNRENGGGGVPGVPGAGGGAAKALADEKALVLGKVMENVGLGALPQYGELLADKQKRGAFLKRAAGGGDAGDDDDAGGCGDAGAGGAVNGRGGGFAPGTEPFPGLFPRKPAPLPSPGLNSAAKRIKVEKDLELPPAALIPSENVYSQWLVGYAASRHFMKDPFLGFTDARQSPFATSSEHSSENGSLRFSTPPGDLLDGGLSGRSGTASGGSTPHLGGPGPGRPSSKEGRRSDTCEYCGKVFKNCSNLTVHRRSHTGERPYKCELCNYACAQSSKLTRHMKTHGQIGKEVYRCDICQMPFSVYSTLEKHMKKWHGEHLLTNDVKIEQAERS
UniProt P51965: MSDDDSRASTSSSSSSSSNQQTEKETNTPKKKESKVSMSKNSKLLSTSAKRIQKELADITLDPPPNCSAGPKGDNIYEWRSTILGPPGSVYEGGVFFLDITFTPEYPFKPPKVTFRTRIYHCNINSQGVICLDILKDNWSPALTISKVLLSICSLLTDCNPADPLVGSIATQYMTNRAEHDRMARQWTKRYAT
UniProt O75879: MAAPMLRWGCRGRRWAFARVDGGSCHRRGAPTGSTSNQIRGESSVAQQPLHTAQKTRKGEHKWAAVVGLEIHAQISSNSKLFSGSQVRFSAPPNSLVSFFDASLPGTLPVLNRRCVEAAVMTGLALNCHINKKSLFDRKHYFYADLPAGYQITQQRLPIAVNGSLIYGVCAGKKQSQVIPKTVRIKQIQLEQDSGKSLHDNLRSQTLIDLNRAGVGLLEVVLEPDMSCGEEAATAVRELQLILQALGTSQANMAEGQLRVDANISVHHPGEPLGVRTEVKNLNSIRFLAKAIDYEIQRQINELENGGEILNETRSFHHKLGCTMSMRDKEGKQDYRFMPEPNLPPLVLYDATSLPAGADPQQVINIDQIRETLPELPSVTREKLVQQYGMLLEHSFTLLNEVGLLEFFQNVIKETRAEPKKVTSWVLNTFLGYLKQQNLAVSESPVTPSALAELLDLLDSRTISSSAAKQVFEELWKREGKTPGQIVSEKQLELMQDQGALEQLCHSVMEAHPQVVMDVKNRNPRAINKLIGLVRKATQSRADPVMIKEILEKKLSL
UniProt Q6NXR4: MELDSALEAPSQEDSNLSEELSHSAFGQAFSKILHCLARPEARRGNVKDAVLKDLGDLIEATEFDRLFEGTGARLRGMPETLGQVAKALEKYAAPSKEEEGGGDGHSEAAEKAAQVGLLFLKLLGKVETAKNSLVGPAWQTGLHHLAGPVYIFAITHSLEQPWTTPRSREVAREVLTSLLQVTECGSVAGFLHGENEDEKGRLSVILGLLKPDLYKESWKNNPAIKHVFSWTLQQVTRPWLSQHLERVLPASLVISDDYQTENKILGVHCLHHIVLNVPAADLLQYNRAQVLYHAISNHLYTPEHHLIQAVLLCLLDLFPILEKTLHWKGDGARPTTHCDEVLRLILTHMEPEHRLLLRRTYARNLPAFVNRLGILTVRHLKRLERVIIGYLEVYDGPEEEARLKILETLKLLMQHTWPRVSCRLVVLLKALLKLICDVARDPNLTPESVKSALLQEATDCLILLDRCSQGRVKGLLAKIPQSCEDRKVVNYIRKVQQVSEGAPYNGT
UniProt O95168, whole entry: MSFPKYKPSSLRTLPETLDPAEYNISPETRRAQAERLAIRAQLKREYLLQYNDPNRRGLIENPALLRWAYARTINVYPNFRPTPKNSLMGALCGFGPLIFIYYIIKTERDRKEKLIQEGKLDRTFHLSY
UniProt P61619, whole entry: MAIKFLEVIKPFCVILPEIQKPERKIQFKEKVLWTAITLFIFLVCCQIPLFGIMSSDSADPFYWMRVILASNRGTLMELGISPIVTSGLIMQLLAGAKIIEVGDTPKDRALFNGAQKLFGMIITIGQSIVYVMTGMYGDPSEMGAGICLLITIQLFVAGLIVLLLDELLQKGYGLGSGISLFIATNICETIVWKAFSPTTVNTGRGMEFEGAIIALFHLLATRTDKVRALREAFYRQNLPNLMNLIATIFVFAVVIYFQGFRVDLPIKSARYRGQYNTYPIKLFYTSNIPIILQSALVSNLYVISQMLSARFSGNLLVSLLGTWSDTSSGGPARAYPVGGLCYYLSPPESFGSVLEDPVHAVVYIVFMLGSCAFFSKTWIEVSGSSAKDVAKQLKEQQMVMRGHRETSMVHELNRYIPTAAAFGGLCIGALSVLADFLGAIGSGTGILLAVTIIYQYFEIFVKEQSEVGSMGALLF
UniProt B5ME19, whole entry, looked up: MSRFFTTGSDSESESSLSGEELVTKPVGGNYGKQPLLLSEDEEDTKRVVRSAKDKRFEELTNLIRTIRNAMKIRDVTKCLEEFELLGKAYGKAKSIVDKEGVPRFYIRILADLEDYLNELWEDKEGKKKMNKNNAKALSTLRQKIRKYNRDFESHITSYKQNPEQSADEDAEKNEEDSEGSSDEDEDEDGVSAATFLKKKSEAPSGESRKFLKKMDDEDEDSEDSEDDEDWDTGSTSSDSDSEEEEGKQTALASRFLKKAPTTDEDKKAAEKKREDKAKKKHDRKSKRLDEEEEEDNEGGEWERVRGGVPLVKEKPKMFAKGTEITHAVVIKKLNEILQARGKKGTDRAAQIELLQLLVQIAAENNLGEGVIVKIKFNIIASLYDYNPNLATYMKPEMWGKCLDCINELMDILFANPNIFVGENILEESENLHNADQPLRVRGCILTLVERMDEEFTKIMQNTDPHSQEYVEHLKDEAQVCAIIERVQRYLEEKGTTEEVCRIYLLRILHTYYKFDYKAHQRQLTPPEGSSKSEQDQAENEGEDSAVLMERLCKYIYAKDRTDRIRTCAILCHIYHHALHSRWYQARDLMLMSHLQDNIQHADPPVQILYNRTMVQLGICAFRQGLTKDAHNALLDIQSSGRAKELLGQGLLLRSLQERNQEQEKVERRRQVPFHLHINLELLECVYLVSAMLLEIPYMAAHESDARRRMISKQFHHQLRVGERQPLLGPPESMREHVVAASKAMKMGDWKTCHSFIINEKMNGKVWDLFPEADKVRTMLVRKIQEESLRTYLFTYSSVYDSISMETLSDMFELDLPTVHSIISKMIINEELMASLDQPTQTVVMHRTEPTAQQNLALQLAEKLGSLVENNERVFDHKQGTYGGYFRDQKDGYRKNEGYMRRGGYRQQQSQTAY
UniProt Q99613, whole entry, looked up: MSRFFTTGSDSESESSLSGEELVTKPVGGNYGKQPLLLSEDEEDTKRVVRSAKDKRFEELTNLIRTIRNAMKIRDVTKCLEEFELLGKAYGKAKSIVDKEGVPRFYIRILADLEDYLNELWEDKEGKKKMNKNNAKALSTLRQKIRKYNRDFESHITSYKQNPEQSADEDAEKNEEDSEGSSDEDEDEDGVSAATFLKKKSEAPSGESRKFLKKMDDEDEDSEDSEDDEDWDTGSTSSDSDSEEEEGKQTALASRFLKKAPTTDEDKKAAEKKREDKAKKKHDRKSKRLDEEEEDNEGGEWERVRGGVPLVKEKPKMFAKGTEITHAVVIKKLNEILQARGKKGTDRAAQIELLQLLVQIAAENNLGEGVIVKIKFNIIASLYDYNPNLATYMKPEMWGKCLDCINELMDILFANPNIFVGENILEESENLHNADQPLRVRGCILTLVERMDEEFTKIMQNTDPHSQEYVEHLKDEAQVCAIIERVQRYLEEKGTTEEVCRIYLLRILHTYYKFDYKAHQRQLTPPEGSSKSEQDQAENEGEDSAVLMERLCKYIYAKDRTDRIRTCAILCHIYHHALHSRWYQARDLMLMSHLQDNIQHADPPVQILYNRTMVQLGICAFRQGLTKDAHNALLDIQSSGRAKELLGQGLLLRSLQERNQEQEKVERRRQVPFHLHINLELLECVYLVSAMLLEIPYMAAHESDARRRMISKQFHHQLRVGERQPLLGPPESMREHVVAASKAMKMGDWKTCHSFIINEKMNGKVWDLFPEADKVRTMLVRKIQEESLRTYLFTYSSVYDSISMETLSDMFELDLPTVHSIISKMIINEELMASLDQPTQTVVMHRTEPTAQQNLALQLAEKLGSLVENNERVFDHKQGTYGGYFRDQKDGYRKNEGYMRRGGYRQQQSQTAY
UniProt Q9NQI0, whole entry: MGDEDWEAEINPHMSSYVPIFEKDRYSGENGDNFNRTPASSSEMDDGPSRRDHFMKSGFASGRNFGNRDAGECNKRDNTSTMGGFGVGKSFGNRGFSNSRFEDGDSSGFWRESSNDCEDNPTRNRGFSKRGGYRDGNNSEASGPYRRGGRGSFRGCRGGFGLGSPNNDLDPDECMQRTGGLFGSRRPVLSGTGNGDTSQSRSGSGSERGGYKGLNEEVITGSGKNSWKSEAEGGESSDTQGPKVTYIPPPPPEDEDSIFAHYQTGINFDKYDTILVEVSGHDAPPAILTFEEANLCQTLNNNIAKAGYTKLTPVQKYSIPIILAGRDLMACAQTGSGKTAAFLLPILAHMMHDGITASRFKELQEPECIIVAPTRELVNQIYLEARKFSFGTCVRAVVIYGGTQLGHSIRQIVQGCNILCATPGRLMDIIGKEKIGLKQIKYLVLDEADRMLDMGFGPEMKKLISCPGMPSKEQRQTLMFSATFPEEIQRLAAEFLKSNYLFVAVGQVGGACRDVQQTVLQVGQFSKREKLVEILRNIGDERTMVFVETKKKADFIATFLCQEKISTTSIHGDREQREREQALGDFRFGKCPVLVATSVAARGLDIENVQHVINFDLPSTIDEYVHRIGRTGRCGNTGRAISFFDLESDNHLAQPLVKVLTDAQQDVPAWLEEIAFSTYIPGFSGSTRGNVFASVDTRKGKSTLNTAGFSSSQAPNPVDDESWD
UniProt Q53GS9: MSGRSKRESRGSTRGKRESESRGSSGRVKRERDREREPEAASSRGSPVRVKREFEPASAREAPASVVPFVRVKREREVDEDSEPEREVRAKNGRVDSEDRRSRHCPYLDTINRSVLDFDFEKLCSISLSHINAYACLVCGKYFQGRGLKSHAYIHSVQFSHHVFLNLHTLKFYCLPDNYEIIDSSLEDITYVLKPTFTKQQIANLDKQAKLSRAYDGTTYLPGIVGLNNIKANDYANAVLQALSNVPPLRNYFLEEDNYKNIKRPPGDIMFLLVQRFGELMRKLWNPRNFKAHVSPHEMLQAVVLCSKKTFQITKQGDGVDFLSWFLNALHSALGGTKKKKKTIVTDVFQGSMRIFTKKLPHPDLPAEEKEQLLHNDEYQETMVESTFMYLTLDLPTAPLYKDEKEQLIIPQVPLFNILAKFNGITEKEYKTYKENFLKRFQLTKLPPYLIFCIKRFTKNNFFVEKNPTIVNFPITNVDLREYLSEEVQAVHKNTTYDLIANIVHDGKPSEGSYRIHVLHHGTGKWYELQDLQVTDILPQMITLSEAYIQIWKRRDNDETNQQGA

Compound: Nc1nc2c(ncn2[C@@H]2O[C@H](COP(=O)(O)OP(=O)(O)OP(=O)(O)O)[C@@H](O)[C@H]2O)c(=O)[nH]1 [guanosine triphosphate]
Test: NP40-soluble protein abundance relative to vehicle (solubility fold change) (ratio); higher = more soluble protein in presence of GTP
How it was run: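 Jurkat crude lysate (Dounce-homogenised) was treated with eight concentrations from 0.1 to 10 mM for 10 min at room temperature, then 3 min at 37 °C. It was solubilised with 0.8% NP40 and benzonase (60 min, 4 °C) and ultracentrifuged, and the supernatant was TMT-labelled for LC-MS/MS. Intensities were vsn-normalised, and the value is the fold change against the NP40-processed vehicle per replicate, from three independent experiments.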

| Target | NP40-soluble protein abundance (concentration: 0.1mM) | NP40-soluble protein abundance (concentration: 0.5mM) | NP40-soluble protein abundance (concentration: 1mM) | NP40-soluble protein abundance (concentration: 2mM) | NP40-soluble protein abundance (concentration: 4mM) | NP40-soluble protein abundance (concentration: 6mM) | NP40-soluble protein abundance (concentration: 8mM) | NP40-soluble protein abundance (concentration: 10mM) |
| --- | --- | --- | --- | --- | --- | --- | --- | --- |
| A6ND22 and related entries (UniProt Q9Y3D3) | 0.998 ± 0.086 | 1.03 ± 0.079 | 1.13 ± 0.2 | 1.25 ± 0.29 | 1.23 ± 0.34 | 1.2 ± 0.35 | 1.04 ± 0.2 | 1.13 ± 0.3 |
| B4DDD6 and related entries (UniProt Q9UJU6) | 0.964 ± 0.045 | 0.946 ± 0.049 | 0.931 ± 0.054 | 0.87 ± 0.044 | 0.875 ± 0.06 | 0.865 ± 0.047 | 0.881 ± 0.076 | 0.849 ± 0.078 |
| C9JA28 and related entries (UniProt Q9UNL2) | 0.978 ± 0.085 | 0.971 ± 0.086 | 0.909 ± 0.073 | 0.853 ± 0.13 | 0.81 ± 0.12 | 0.841 ± 0.14 | 0.855 ± 0.056 | 0.829 ± 0.11 |
| B4DEM9 and related entries (UniProt Q9Y2S7) | 1.01 ± 0.013 | 1.03 ± 0.033 | 0.921 ± 0.018 | 0.97 ± 0.042 | 0.923 ± 0.03 | 0.946 ± 0.014 | 0.909 ± 0.045 | 0.892 ± 0.073 |
| D6RAM1 and related entries (UniProt P31943) | 0.974 ± 0.023 | 0.987 ± 0.012 | 0.955 ± 0.014 | 0.96 ± 0.018 | 0.965 ± 0.024 | 0.972 ± 0.019 | 0.951 ± 0.026 | 0.948 ± 0.035 |
| D3YTK1 and related entries (UniProt Q9C0K0) | 1.02 ± 0.018 | 1.05 ± 0.034 | 1.19 ± 0.05 | 1.21 ± 0.073 | 1.31 ± 0.15 | 1.3 ± 0.14 | 1.44 ± 0.16 | 1.43 ± 0.2 |
| C9J2P0 and related entries (UniProt P51965) | 0.894 ± 0.11 | 0.874 ± 0.11 | 0.88 ± 0.13 | 0.839 ± 0.15 | 0.863 ± 0.14 | 0.831 ± 0.097 | 0.849 ± 0.097 | 0.892 ± 0.14 |
| D6REA0 and related entries (UniProt O75879) | 0.993 ± 0.031 | 0.984 ± 0.035 | 0.939 ± 0.032 | 0.947 ± 0.043 | 0.915 ± 0.042 | 0.908 ± 0.027 | 0.928 ± 0.023 | 0.912 ± 0.043 |
| C9JP16 and related entries (UniProt O75718) | 0.95 ± 0.061 | 0.97 ± 0.013 | 1.09 ± 0.024 | 1.14 ± 0.099 | 1.22 ± 0.078 | 1.211 ± 0.0066 | 1.29 ± 0.065 | 1.26 ± 0.17 |
| E5RIH5 and related entries (UniProt Q6NXR4) | 1.02 ± 0.014 | 1 ± 0.045 | 1.03 ± 0.062 | 1.05 ± 0.065 | 1.05 ± 0.015 | 1.07 ± 0.032 | 1.08 ± 0.058 | 1.11 ± 0.04 |
| C9JXQ9 and related entries (UniProt O95168) | 1.01 ± 0.24 | 1.06 ± 0.21 | 1.08 ± 0.12 | 1.17 ± 0.17 | 1.15 ± 0.13 | 1.1 ± 0.16 | 1.15 ± 0.15 | 1.21 ± 0.27 |
| B4DR61 and related entries (UniProt P61619) | 1.12 ± 0.1 | 1.07 ± 0.088 | 0.974 ± 0.02 | 1.01 ± 0.13 | 1.01 ± 0.12 | 1.02 ± 0.066 | 0.97 ± 0.023 | 0.957 ± 0.1 |
| B5ME19 and related entries (UniProt Q99613+B5ME19) | 1.02 ± 0.077 | 1.01 ± 0.05 | 1.02 ± 0.077 | 1.08 ± 0.14 | 1.22 ± 0.24 | 1.32 ± 0.28 | 1.5 ± 0.32 | 1.68 ± 0.37 |
| D6RCM4 and related entries (UniProt Q9NQI0) | 1.07 ± 0.12 | 1.09 ± 0.16 | 0.998 ± 0.2 | 1.04 ± 0.27 | 1.01 ± 0.22 | 1.05 ± 0.28 | 0.939 ± 0.16 | 0.872 ± 0.16 |
| D6REX3 and related entries (UniProt O94979) | 0.951 ± 0.021 | 0.971 ± 0.019 | 0.933 ± 0.031 | 0.922 ± 0.014 | 0.894 ± 0.026 | 0.927 ± 0.018 | 0.888 ± 0.032 | 0.898 ± 0.043 |
| D6RER5 and related entries (UniProt Q9NVA2) | 1.04 ± 0.12 | 1.03 ± 0.12 | 1.01 ± 0.095 | 1.02 ± 0.064 | 1.04 ± 0.11 | 0.97 ± 0.084 | 1.04 ± 0.11 | 0.981 ± 0.1 |
| B9A018 and related entries (UniProt Q53GS9) | 1.06 ± 0.041 | 1.1 ± 0.073 | 1.04 ± 0.057 | 1.11 ± 0.13 | 1.17 ± 0.086 | 1.2 ± 0.088 | 1.21 ± 0.016 | 1.21 ± 0.12 |
| B3KS98 and related entries (UniProt O15372) | 0.992 ± 0.07 | 1.01 ± 0.088 | 1.03 ± 0.075 | 1.08 ± 0.15 | 1.27 ± 0.25 | 1.42 ± 0.28 | 1.6 ± 0.34 | 1.8 ± 0.36 |

A run of entries from further up, for reference:

| Target | NP40-soluble protein abundance (concentration: 0.1mM) | NP40-soluble protein abundance (concentration: 0.5mM) | NP40-soluble protein abundance (concentration: 1mM) | NP40-soluble protein abundance (concentration: 2mM) | NP40-soluble protein abundance (concentration: 4mM) | NP40-soluble protein abundance (concentration: 6mM) | NP40-soluble protein abundance (concentration: 8mM) | NP40-soluble protein abundance (concentration: 10mM) |
| --- | --- | --- | --- | --- | --- | --- | --- | --- |
| B4DR61 and related entries (UniProt P61619) | 1.12 ± 0.1 | 1.07 ± 0.088 | 0.974 ± 0.02 | 1.01 ± 0.13 | 1.01 ± 0.12 | 1.02 ± 0.066 | 0.97 ± 0.023 | 0.957 ± 0.1 |
| B5ME19 and related entries (UniProt Q99613+B5ME19) | 1.02 ± 0.077 | 1.01 ± 0.05 | 1.02 ± 0.077 | 1.08 ± 0.14 | 1.22 ± 0.24 | 1.32 ± 0.28 | 1.5 ± 0.32 | 1.68 ± 0.37 |
